# Laboratory results published in the supplement of paper PMC9135407.
# Values joined by “and” are separate entries in the source; they are usually repeats but may differ in a detail not shown here. Equal values may be shown once. Where a name gives a salt, the structure may show the parent alone. ± gives the standard deviation of the averaged measurements. The list shows a part of the results. Plates or batches differ in their baseline, so values are only roughly comparable.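 Primary human stellate myofibroblasts activated in culture; inactivation shown by regained lipid droplets. Readout: fraction of Hoechst-counted cells exceeding a per-plate Bodipy threshold, duplicate wells, each plate with DMSO negative and nortriptyline positive controls. Hits: control-normalized score beyond the plate's top-tenth-percentile nortriptyline wells, or among its three best wells. Final well concentrations unstated.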
# Test system: primary human hepatic stellate cells (donor 1)
# Experiment: percent Bodipy-positive cells; higher = more lipid droplet accumulation
# Details: 48 h
# [1] = library stock concentration: 3.33 mM
# [2] = library stock concentration: 10 mM
# [3] = library stock concentration: 1 mM
# [4] = library stock concentration: 80 uM
# [5] = library stock concentration: 400 uM
# [6] = library stock concentration: 2 mM
smiles,measurement,setting,value
O=C(c1ccc(F)cc1)N1CCCC(c2nc(-c3ccc(F)cc3)no2)C1 (stereo unspecified),percent Bodipy-positive cells,[1],8.25 ± 2.7%
same,percent Bodipy-positive cells,[2],12.2 ± 0.67%
CC(=O)O[C@]1(C(C)=O)CCC2C3C=C(Cl)C4=CC(=O)CC[C@]4(C)C3CC[C@@]21C (stereo partly specified) [Chlormadinone acetate],percent Bodipy-positive cells,[2],88.2 ± 3.6%
O=C(CNC(=O)c1ccc(Cl)cc1)NO [Benurestat],percent Bodipy-positive cells,library stock concentration: 8.7 mM,16.5 ± 6.8%
CN1CCCC(n2nc(Cc3ccc(Cl)cc3)c3ccccc3c2=O)CC1 (stereo unspecified) [Azelastine HCl],percent Bodipy-positive cells,[1],60.4 ± 13%
CN1CCCC(n2nc(Cc3ccc(Cl)cc3)c3ccccc3c2=O)CC1 (stereo unspecified),percent Bodipy-positive cells,[2],83.6 ± 1.9%
O=c1oc(-c2ccc(C(F)(F)F)cc2)nn1Cc1cc(Cl)ccc1O,percent Bodipy-positive cells,[2],47.4 ± 14%
CC1=CC(=O)NS(=O)(=O)O1,percent Bodipy-positive cells,[2],37 ± 0.46%
CC1=CC(=O)NS(=O)(=O)O1 [Acesulfame Potassium],percent Bodipy-positive cells,[1],15.1 ± 3.1%
same,percent Bodipy-positive cells,[2],17.9 ± 1.5%
CCCC(=O)Nc1ncnc2c1ncn2[C@@H]1O[C@@H]2COP(=O)(O)O[C@H]2[C@H]1OC(=O)CCC [Bucladesine],percent Bodipy-positive cells,[2],25.4 ± 7.2%
"CCCC(=O)Nc1ncnc2c1ncn2[C@@H]1O[C@@H]2COP(=O)(O)O[C@H]2[C@H]1OC(=O)CCC [Dibutyryl-cAMP, sodium salt]",percent Bodipy-positive cells,[2],8.09 ± 3.1%
CCCC(=O)Nc1ncnc2c1ncn2[C@@H]1O[C@@H]2COP(=O)(O)O[C@H]2[C@H]1OC(=O)CCC [Bucladesine sodium salt],percent Bodipy-positive cells,,10.1 ± 3.4%
CN(C)CCC[C@@]1(c2ccc(F)cc2)OCc2cc(C#N)ccc21 [Escitalopram],percent Bodipy-positive cells,library stock concentration: 6.2 mM,31.7 ± 8.6%
CN(C)CCC[C@@]1(c2ccc(F)cc2)OCc2cc(C#N)ccc21 [Escitalopram Oxalate],percent Bodipy-positive cells,[1],26.1 ± 4.8%
same,percent Bodipy-positive cells,[2],79.3 ± 9.5%
CN(C)CCC[C@@]1(c2ccc(F)cc2)OCc2cc(C#N)ccc21,percent Bodipy-positive cells,[2],68.7 ± 12%
CCCCC/C=C\C/C=C\C/C=C\C/C=C\CCCC(=O)OCC [Arachidonic Acid ethyl ester],percent Bodipy-positive cells,[3],6.79 ± 1.8%
CC(=O)N[C@@H](CCC(=O)O)C(=O)O [Acetylglutamic acid],percent Bodipy-positive cells,[2],20.8 ± 8%
O=S(=O)(c1ccccc1)c1cnc2c(N3CCNCC3)cccc2c1,percent Bodipy-positive cells,[1],40 ± 10%
COc1ccc(-n2c(C)c([N+](=O)[O-])c3ccc(O)cc32)cc1,percent Bodipy-positive cells,[1],54 ± 4.7%
same,percent Bodipy-positive cells,[2],76.54 ± 0.58%
CC(C)C[C@H](NC(=O)[C@H](CCc1ccccc1)NC(=O)CN1CCOCC1)C(=O)N[C@@H](Cc1ccccc1)C(=O)N[C@@H](CC(C)C)C(=O)[C@@]1(C)CO1 [Carfilzomib (PR-171)],percent Bodipy-positive cells,[1],76.6 ± 10%
same,percent Bodipy-positive cells,[2],92.7 ± 6.6%
Cc1c(C(=O)NC2CCCCC2)sc2nc3ccc(N)cc3n12,percent Bodipy-positive cells,[2],14.8 ± 6.2%
COc1ccc(C2(CNC(=O)c3ccc(NC(=O)c4ccco4)cc3)CCOCC2)cc1,percent Bodipy-positive cells,[4],42.1 ± 6.3%
same,percent Bodipy-positive cells,[5],36.2 ± 1.6%
same,percent Bodipy-positive cells,[6],39.3 ± 0.88%
same,percent Bodipy-positive cells,[2],48.2 ± 6%
O=C(O[C@H]1CN2CCC1CC2)N1CCc2ccccc2[C@@H]1c1ccccc1,percent Bodipy-positive cells,[2],57 ± 2.4%
O=C(O[C@H]1CN2CCC1CC2)N1CCc2ccccc2[C@@H]1c1ccccc1 [Solifenacin succinate],percent Bodipy-positive cells,[1],37.2 ± 1.5%
NC(=O)N/N=C/c1ccc([N+](=O)[O-])o1 [Nitrofurazone],percent Bodipy-positive cells,[2],15.9 ± 7.9%
NC(=O)N/N=C/c1ccc([N+](=O)[O-])o1 [Nitrofural],percent Bodipy-positive cells,,32.5 ± 3.4%
same,percent Bodipy-positive cells,[1],8.02 ± 3%
same,percent Bodipy-positive cells,[2],8.17 ± 1.5%
CCN(CC)CC1CCN(c2ncc3ncnc(Nc4ccc(F)c(Cl)c4)c3n2)CC1.Cl.Cl [BIBU 1361 dihydrochloride],percent Bodipy-positive cells,[2],99 ± 1.4%
CCCCCCCCCCCCCCCCOC[C@H](COP(=O)([O-])OCC[N+](C)(C)C)OC [2-O-methyl PAF C-16],percent Bodipy-positive cells,[3],14 ± 0.75%
COc1ccc(S(=O)(=O)N2c3ccc(Cl)cc3[C@](O)(c3ccccc3Cl)[C@@H]2C(=O)N2CCC[C@H]2C(N)=O)cc1OC,percent Bodipy-positive cells,[2],9.48 ± 0.5%
COc1cc(OC)c(C=C2C(=O)Nc3ccccc32)c(OC)c1,percent Bodipy-positive cells,[1],16.2 ± 4%
same,percent Bodipy-positive cells,[2],30.7 ± 7%
CN1CCCCC1CCN1c2ccccc2Sc2ccc([S+](C)[O-])cc21 (stereo unspecified) [Mesoridazine besylate],percent Bodipy-positive cells,,60.95 ± 0.14%
same,percent Bodipy-positive cells,library stock concentration: 5.2 mM,41.4 ± 5.5%
CN1CCCCC1CCN1c2ccccc2Sc2ccc([S+](C)[O-])cc21 (stereo unspecified) [Mesoridazine],percent Bodipy-positive cells,[2],54.5 ± 19%
CC(=O)OCOC(=O)CN(CC(=O)OCOC(C)=O)c1ccccc1OCCOc1ccccc1N(CC(=O)OCOC(C)=O)CC(=O)OCOC(C)=O,percent Bodipy-positive cells,[1],56.5 ± 6.6%
same,percent Bodipy-positive cells,[2],97 ± 4.2%
O=Nc1c(-c2c(O)[nH]c3cc(Br)ccc23)[nH]c2ccccc12,percent Bodipy-positive cells,[4],10.3 ± 2.3%
same,percent Bodipy-positive cells,[5],19.1 ± 2.5%
same,percent Bodipy-positive cells,[6],16.7 ± 5.3%
same,percent Bodipy-positive cells,[1],31.4 ± 9.9%
O=Nc1c(-c2c(O)[nH]c3cc(Br)ccc23)[nH]c2ccccc12 [GSK-3 Inhibitor IX],percent Bodipy-positive cells,[1],19 ± 1.2%
CO[C@@H]1[C@@H](OC(N)=O)[C@@H](O)[C@H](Oc2ccc3c(O)c(NC(=O)c4ccc(O)c(CC=C(C)C)c4)c(=O)oc3c2C)OC1(C)C [Novobiocin sodium],percent Bodipy-positive cells,[2],21 ± 7.4%
CO[C@@H]1[C@@H](OC(N)=O)[C@@H](O)[C@H](Oc2ccc3c(O)c(NC(=O)c4ccc(O)c(CC=C(C)C)c4)c(=O)oc3c2C)OC1(C)C [Novobiocin sodium salt],percent Bodipy-positive cells,,8.19 ± 1.2%
CO[C@@H]1[C@@H](OC(N)=O)[C@@H](O)[C@H](Oc2ccc3c(O)c(NC(=O)c4ccc(O)c(CC=C(C)C)c4)c(=O)oc3c2C)OC1(C)C [Novobiocin Sodium],percent Bodipy-positive cells,[1],10.5 ± 1.6%
same,percent Bodipy-positive cells,[2],14.1 ± 0.25%
CN(C)C/C=C/C(=O)Nc1ccc(C(=O)Nc2cccc(Nc3nccc(-c4cccnc4)n3)c2)cc1,percent Bodipy-positive cells,[2],99.51 ± 0.24%
CCCCC(CC)CN1CCC(n2cc(CNC)nn2)CC1 (stereo unspecified),percent Bodipy-positive cells,[2],94.33 ± 0.44%
Brc1c(Br)c(Br)c2n[nH]nc2c1Br [Casein Kinase II Inhibitor I],percent Bodipy-positive cells,[1],19 ± 8.8%
CN(NC(=O)CC(=O)NN(C)C(=S)c1ccccc1)C(=S)c1ccccc1 [Elesclomol (STA-4783)],percent Bodipy-positive cells,[1],10.9 ± 4.4%
same,percent Bodipy-positive cells,[2],18 ± 6.1%
CCCCCC(=O)/C=C/[C@H]1[C@H](O)CC(=O)[C@@H]1CCCCCCC(=O)O [15-keto Prostaglandin E1],percent Bodipy-positive cells,[3],17.9 ± 5%
"Nc1nc2c(nc(Br)n2[C@@H]2O[C@@H]3COP(=O)(O)O[C@H]3[C@H]2O)c(=O)[nH]1 [8-Bromo-cGMP, sodium salt]",percent Bodipy-positive cells,[2],6.34 ± 0.065%
CCN1CCN(C(=O)N[C@@H](C(=O)N[C@@H]2C(=O)N3[C@@H]2SC(C)(C)[C@@H]3C(=O)O)c2ccccc2)C(=O)C1=O [Piperacillin Sodium],percent Bodipy-positive cells,[1],12.2 ± 1.2%
same,percent Bodipy-positive cells,[2],23.5 ± 9.4%
CCN1CCN(C(=O)N[C@@H](C(=O)N[C@@H]2C(=O)N3[C@@H]2SC(C)(C)[C@@H]3C(=O)O)c2ccccc2)C(=O)C1=O,percent Bodipy-positive cells,[2],30.52 ± 0.27%
CCN1CCN(C(=O)N[C@@H](C(=O)N[C@@H]2C(=O)N3[C@@H]2SC(C)(C)[C@@H]3C(=O)O)c2ccccc2)C(=O)C1=O [Piperacillin sodium],percent Bodipy-positive cells,[2],17.9 ± 5%
CCN1CCN(C(=O)N[C@@H](C(=O)N[C@@H]2C(=O)N3[C@@H]2SC(C)(C)[C@@H]3C(=O)O)c2ccccc2)C(=O)C1=O [Piperacillin sodium salt],percent Bodipy-positive cells,,8.78 ± 2.4%
CC(=O)Oc1cccc(O)c1 [Resorcinol monoacetate],percent Bodipy-positive cells,[2],25.6 ± 8.4%
same,percent Bodipy-positive cells,library stock concentration: 13.1 mM,11.3 ± 4.4%
CN[C@@H]1C[C@H]2O[C@@](C)([C@@H]1OC)n1c3ccccc3c3c4c(c5c6ccccc6n2c5c31)C(=O)N[C@H]4O,percent Bodipy-positive cells,[1],99.66 ± 0.00071%
O=[N+]([O-])c1ccc2c(c1)S(=O)(=O)C=C2 [Stattic],percent Bodipy-positive cells,[1],100%
"NCCCCCCCCCCN [1,10-Diaminodecane]",percent Bodipy-positive cells,[2],39.32 ± 0.1%
OC[C@H]1O[C@@H](Oc2ccc(O)cc2)[C@H](O)[C@@H](O)[C@@H]1O [Arbutin],percent Bodipy-positive cells,,6.92 ± 1.5%
same,percent Bodipy-positive cells,[1],14 ± 11%
same,percent Bodipy-positive cells,[2],7.85 ± 3.9%
O=C(c1ccc(C(=O)N2CCC(N3CCCC3)CC2)c(Nc2ccccc2)c1)N1CCC(N2CCCC2)CC1,percent Bodipy-positive cells,[4],29.2 ± 5%
same,percent Bodipy-positive cells,[5],29.6 ± 4.9%
same,percent Bodipy-positive cells,[6],43.1 ± 4.8%
same,percent Bodipy-positive cells,[1],14.4 ± 4%
same,percent Bodipy-positive cells,[2],43.8% and 55.2%
O=Nc1ccc(O)c2ncccc12,percent Bodipy-positive cells,[2],20.1 ± 1.6%
Nc1ccc(S(=O)(=O)c2ccc(N)cc2)cc1,percent Bodipy-positive cells,[2],33.9 ± 4.5%
Nc1ccc(S(=O)(=O)c2ccc(N)cc2)cc1 [Dapsone],percent Bodipy-positive cells,,26.2 ± 4%
same,percent Bodipy-positive cells,library stock concentration: 8.1 mM,2.98 ± 0.26%
same,percent Bodipy-positive cells,[2],9.58 ± 1.8%
OCCN1CCN(CCCN2c3ccccc3Sc3ccc(Cl)cc32)CC1 [Perphenazine],percent Bodipy-positive cells,,71.7 ± 4%
same,percent Bodipy-positive cells,library stock concentration: 5 mM,88.8 ± 6.5%
same,percent Bodipy-positive cells,[2],99.51 ± 0.69%
CNCCC(Oc1ccc(C(F)(F)F)cc1)c1ccccc1.Cl (stereo unspecified) [Fluoxetine],percent Bodipy-positive cells,library stock concentration: 5.8 mM,83.1 ± 1.4%
CN(C)CCc1c[nH]c2ccc(Cn3cncn3)cc12 [Rizatriptan Benzoate],percent Bodipy-positive cells,[1],10.2 ± 2.9%
same,percent Bodipy-positive cells,[2],18 ± 7.3%
CN(C)CCc1c[nH]c2ccc(Cn3cncn3)cc12,percent Bodipy-positive cells,[2],5.8 ± 1.4%
CN(C)CCc1c[nH]c2ccc(Cn3cncn3)cc12 [Rizatriptan benzoate],percent Bodipy-positive cells,library stock concentration: 5.1 mM,12.8 ± 4.9%
CCCCC[C@H](O)/C=C/[C@@H]1[C@@H](C/C=C\CCCC(=O)NC(CO)CO)[C@@H](O)C[C@H]1O [Prostaglandin F2.alpha. serinol amide],percent Bodipy-positive cells,[3],10.9 ± 2.3%
Fc1ccc(-c2nc3n(c2-c2ccncc2)CCS3)cc1,percent Bodipy-positive cells,[1],11.8 ± 1.8%
same,percent Bodipy-positive cells,[2],6.76 ± 1.9%
CCC[C@H](N[C@@H](C)C(=O)N1[C@H](C(=O)O)C[C@@H]2CCCC[C@@H]21)C(=O)OCC [Perindopril],percent Bodipy-positive cells,,8.36 ± 5.6%
CCC[C@H](N[C@@H](C)C(=O)N1[C@H](C(=O)O)C[C@@H]2CCCC[C@@H]21)C(=O)OCC [Perindopril erbumine],percent Bodipy-positive cells,library stock concentration: 4.5 mM,9.54 ± 5.5%
same,percent Bodipy-positive cells,[2],60.7 ± 19%
CCCC(=O)O[C@]1(C(=O)COC(C)=O)CC[C@H]2[C@@H]3C[C@H](F)C4=CC(=O)C=C[C@]4(C)[C@@]3(F)[C@@H](O)C[C@@]21C [Difluprednate],percent Bodipy-positive cells,[1],18.8 ± 6.3%
same,percent Bodipy-positive cells,[2],18.7 ± 7.7%
Cn1nnnc1SCC1=C(C(=O)O)N2C(=O)[C@@H](NC(=O)[C@H](O)c3ccccc3)[C@H]2SC1 [Cefamandole sodium salt],percent Bodipy-positive cells,,5.93 ± 0.48%
COCCOc1ccc2c(c1)ncn2-c1ccc2cccc(N3CCC(N)CC3)c2n1,percent Bodipy-positive cells,[2],98.58 ± 0.89%
Nc1ccc(C(=O)NCC(=O)O)cc1 [Aminohippuric acid],percent Bodipy-positive cells,,10.1 ± 4.6%
same,percent Bodipy-positive cells,[2],39.7 ± 5%
Nc1ccc(C(=O)NCC(=O)O)cc1 [4-Aminohippuric Acid],percent Bodipy-positive cells,[1],10.3 ± 3%
same,percent Bodipy-positive cells,[2],28.4 ± 11%
